Values from PubChem BioAssay AID1259424 (University of Nebraska Medical Center, 2018).
This is an unselected part of about 14,000 deposited reagents. 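Higher correlation or smaller distance means closer resemblance to KSR1 loss; control wells, including KSR1 knockdowns, recur on many plates.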 A reagent listed more than once was tested more than once; the source does not tell the runs apart. Not given: the time to read-out.

Aim: 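Find knockdowns that reproduce the expression shifts seen after KSR1 loss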 (primary screen)
System: human HCT116 colon cancer cells
Reagent: siRNA pool against human genes, 50 nM
Read-out: 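Six signature mRNAs by branched-DNA multiplex assay, scaled to two housekeeping genes and non-targeting median, log2; matched to mean KSR1 knockdown profile by Pearson correlation and euclidean distance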
Direction: mean correlation with KSR1 profile and KSR1 correlation: higher = expression change more like KSR1 knockdown; mean distance from KSR1 profile: higher = expression change less like KSR1 knockdown

gene | mean correlation with KSR1 profile | mean distance from KSR1 profile | KSR1 correlation, replicate 1 | KSR1 correlation, replicate 2 | KSR1 correlation, replicate 3
INS | 0.505 | 1.21 | 0.614 | 0.448 | 0.422
DCTD | -0.00606 | 2.26 | 0.0537 | -0.151 | -0.0366
CASR | 0.726 | 1.36 | 0.594 | 0.8 | 0.718
LOC81787 (retired record) | 0.788 | 1.98 | 0.808 | 0.349 | 0.074
GDF3 | 0.569 | 1.22 | 0.567 | 0.464 | 0.0084
CACNA1F | -0.0162 | 1.41 | 0.0846 | 0.243 | -0.373
CST4 | 0.424 | 3.05 | 0.629 | 0.382 | 0.19
FRZB | 0.359 | 1.56 | 0.462 | 0.29 | 0.38
ADAMTS9 | 0.624 | 1.98 | 0.589 | 0.409 | 0.299
VPS35 | -0.167 | 3.01 | -0.0819 | 0.365 | -0.623
KRT2 | -0.183 | 1.93 | 0.23 | -0.528 | 0.0926
PPP1R16A | -0.0878 | 1.78 | 0.0182 | -0.124 | -0.214
BARHL1 | -0.107 | 2.14 | 0.234 | -0.242 | -0.388
NUFIP1 | 0.00574 | 1.2 | -0.0565 | -0.374 | -0.0772
PCDHA2 | 0.323 | 1.93 | 0.161 | 0.29 | 0.281
SNF8 | -0.745 | 1.47 | -0.553 | -0.858 | -0.61
KCNJ11 | 0.189 | 1.38 | 0.224 | 0.307 | 0.211
CABP1 | -0.168 | 2.98 | -0.053 | -0.267 | -0.0924
GNB2 | -0.349 | 3.96 | -0.319 | -0.385 | -0.345
INHBA | 0.235 | 0.901 | 0.347 | 0.296 | 0.271
PSD | -0.549 | 1.75 | -0.455 | -0.372 | -0.782
NADSYN1 | 0.133 | 2.65 | -0.00542 | 0.393 | 0.141
RAMP2 | 0.287 | 1.45 | 0.212 | 0.249 | 0.328
NIPSNAP3A | -0.19 | 2.19 | -0.158 | -0.336 | -0.012
LPAR5 | 0.883 | 2.27 | 0.857 | 0.802 | 0.921
CIAO1 | -0.511 | 2.18 | -0.585 | -0.466 | -0.61
SLC30A2 | -0.197 | 2.24 | -0.226 | -0.176 | -0.328
UBA6 | -0.69 | 5.58 | -0.187 | -0.339 | -0.509
PPP2R5D | -0.648 | 2.04 | -0.536 | -0.853 | -0.0514
BCO2 | 0.779 | 2.27 | 0.616 | 0.763 | 0.836
RABEP2 | 0.479 | 1.81 | 0.513 | 0.555 | 0.32
GATD3 | 0.0584 | 1.38 | -0.169 | 0.158 | 0.0821
TRHR | 0.0657 | 2.66 | 0.0598 | 0.237 | 0.0538
NT5E | -0.264 | 2.87 | -0.314 | -0.262 | -0.349
ABLIM1 | -0.095 | 2.18 | -0.203 | -0.103 | -0.225
AIDA | 0.132 | 1.71 | -0.537 | -0.402 | 0.417
BTN2A1 | -0.32 | 2.2 | -0.432 | -0.137 | -0.47
BTN2A1 | -0.438 | 1.66 | -0.371 | -0.505 | -0.266
ACO1 | -0.458 | 4.25 | -0.496 | -0.507 | -0.562
C21orf91 | -0.711 | 1.22 | -0.831 | -0.586 | -0.52
TMC8 | 0.0345 | 3.01 | 0.0131 | -0.168 | -0.0235
ACYP2 | 0.79 | 0.918 | 0.881 | 0.761 | 0.778
NFS1 | 0.591 | 1.49 | 0.585 | 0.624 | 0.268
SSTR1 | 0.498 | 3.46 | 0.468 | 0.538 | 0.544
SRP68 | -0.357 | 2.25 | -0.114 | -0.574 | -0.195
MUC3A | -0.603 | 2 | -0.615 | -0.583 | -0.308
MPC2 | -0.444 | 2.59 | -0.318 | -0.582 | -0.503
COPB1 | -0.48 | 4.55 | -0.536 | -0.209 | -0.55
SH3BGRL2 | 0.426 | 1.4 | 0.273 | 0.316 | 0.41
KLK1 | -0.156 | 1.64 | -0.0314 | -0.0937 | -0.571
SECISBP2L | -0.00362 | 2.24 | 0.0021 | -0.0101 | 0.0673
C19orf73 | 0.188 | 3.94 | 0.12 | 0.168 | 0.315
SLAMF1 | 0.0112 | 1.75 | 0.0902 | 0.0723 | -0.155
SNX17 | 0.351 | 1.63 | 0.384 | 0.432 | 0.348
NPY5R | 0.773 | 1.79 | 0.805 | 0.837 | 0.663
STX11 | -0.0122 | 1.5 | 0.195 | 0.0564 | -0.282
RGS13 | -0.582 | 1.7 | -0.388 | -0.774 | -0.357
WWC3 | 0.0452 | 2.41 | 0.0687 | -0.192 | 0.0852
DLEU2 | 0.352 | 3.53 | 0.472 | 0.153 | 0.267
DIRAS2 | -0.318 | 2.53 | -0.423 | -0.222 | -0.707
ERCC3 | 0.0813 | 1.48 | -0.06 | 0.16 | 0.0149
RCC2 | 0.197 | 1.58 | -0.101 | -0.0434 | 0.288
AK9 | 0.515 | 1.75 | 0.755 | 0.601 | -0.198
